Reference: publication doi:10.1101/2024.11.11.622870
No constants are given. Whether binding was seen depends on the method and setting. Binding can be weak; no strength is given. Sequences can lack the tags named with a protein.

Target: T1, GFP-FKBP-Rab25 (UniProt P57735)
T1 sequence: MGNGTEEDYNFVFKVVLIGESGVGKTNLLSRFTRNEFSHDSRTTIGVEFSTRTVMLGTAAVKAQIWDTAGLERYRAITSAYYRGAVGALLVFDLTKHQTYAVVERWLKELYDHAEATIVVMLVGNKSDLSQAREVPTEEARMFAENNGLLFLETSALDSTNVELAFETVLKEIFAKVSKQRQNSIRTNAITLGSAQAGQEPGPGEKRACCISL
Assay: knock-sideways relocalisation

binding: binds weakly
Substance: FMNL1 (from UniProt O95466-2)
